# Test results from PubChem BioAssay AID2718 (Broad Institute, 2010).
# Sequences of proteins named here, by UniProt entry; tags and fusion partners are left off.
# UniProt O15379, whole entry, looked up: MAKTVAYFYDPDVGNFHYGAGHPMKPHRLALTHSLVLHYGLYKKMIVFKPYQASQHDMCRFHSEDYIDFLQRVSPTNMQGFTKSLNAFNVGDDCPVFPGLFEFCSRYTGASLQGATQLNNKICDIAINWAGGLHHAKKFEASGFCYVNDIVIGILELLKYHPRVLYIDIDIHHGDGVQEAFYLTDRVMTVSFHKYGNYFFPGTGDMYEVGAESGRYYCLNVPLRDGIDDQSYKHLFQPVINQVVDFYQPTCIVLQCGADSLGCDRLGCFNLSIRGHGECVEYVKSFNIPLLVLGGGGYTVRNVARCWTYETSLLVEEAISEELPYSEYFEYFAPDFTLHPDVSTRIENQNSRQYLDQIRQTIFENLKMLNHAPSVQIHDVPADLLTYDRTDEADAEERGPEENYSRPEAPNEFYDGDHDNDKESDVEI
# About 480 (0.15%) of roughly 320,000 compounds were called active. Inconclusive results, whose numbers are uncertain, are shown with a selection of clear calls. Rule as the data show it: active = inhibition above about 26% (passing the limit was not always enough); inconclusive = no clear call, values can overlap the other calls.
# Molecular target: Histone deacetylase 3 (Homo sapiens) (UniProt O15379)
# Test: HDAC3 deacetylase inhibitors, primary screen, biochemical, fluorescence, cell-free homogeneous (AID 2718)
# Details: recombinant HDAC3, fluorogenic peptide/trypsin coupled, at 8.3 µM, active compounds read high
row,SMILES,inhibition
1,CC[C@H](C)[C@@H](C(=O)NCCCCCCCCCCC(=O)N1CCNCC1)n1cc(CCCCN=C(N)N)nn1,inconclusive: 23.9%
2,COc1ccc(OC)c(-c2csc(NC(=O)CSc3ccc([N+](=O)[O-])cc3)n2)c1,inactive: 2.76%
3,COc1ccccc1NC(=O)CSc1ccc(-c2ccco2)nn1,inactive: -9.05%
4,O=C1C=C(c2ccc3c(c2)OCCO3)C[C@@H](c2ccc(F)cc2)C1,inactive: 0.936%
5,CCCCOc1ccc(C(=O)NCC(=O)OC2CCOC2=O)cc1 (stereo not given),inactive: -3.61%
6,CSc1ccc(CN2CCCC(CNC(=O)c3ccc(F)cc3)C2)cc1 (stereo not given),inconclusive: 18.9%
7,CCOC(=O)c1cc(S(=O)(=O)NCCc2ccc(OC)c(OC)c2)cn1C,inconclusive: 13.9%
8,COc1ccc2cc3cc(C(=O)N4CCN(c5ccccn5)CC4)oc3nc2c1,inconclusive: 13.4%
9,CC(C)c1ccc(NC(=S)N2CCCC(c3ccc(F)cc3)=N2)cc1,inactive: 3.25%
10,Oc1[nH]c2ccc(Br)cc2c1N=Nc1nn[nH]n1,inconclusive: 10.7%
11,CC(C)(C)OC(=O)NCC1CCN(S(=O)(=O)Cc2ccccc2)CC1,inconclusive: 14.8%
12,Cc1ccc(S(=O)(=O)N2CCCCC2)cc1C(=O)NCC1CCCO1 (stereo not given),inconclusive: 23.2%
13,CCCCNC(=O)c1onc(CSc2ccccc2)c1C(=O)O,inactive: 3.38%
14,O=C1CCc2cc(S(=O)(=O)NCc3ccccc3)cc3c2N1CC3,inconclusive: 25.9%
15,COc1ccc(C(=O)Nc2ccccc2C(=O)N2CCN(c3ccccc3)CC2)cc1,inconclusive: 20.8%
16,OC(COc1ccccc1)CN1CCN(CC(O)COc2ccccc2)CC1 (stereo not given),inconclusive: 30.9%
17,Cc1ccc(NC(=O)C(OC(=O)c2ccc(C=O)cc2)c2ccccc2)cc1Cl (stereo not given),inconclusive: 20.9%
18,CC(C)(C)NC(=O)NC(=O)CN1CCN(c2ncc(C(F)(F)F)cc2Cl)CC1,inconclusive: 19.2%
19,COc1ccccc1N1CCN(/N=C(\C)c2ccc(O)cc2)CC1,inactive: 1.7%
20,CC(=O)c1ccc2noc(-c3ccc(Cl)cc3)c2c1,inconclusive: 17%
21,O=C(NCc1ccc(F)cc1)C(c1ccccc1)N(C(=O)c1csnn1)c1ccccc1 (stereo not given),inconclusive: 28.3%
22,COc1ccc(-c2noc(CNC(=O)CCCN3C(=O)[C@H]4CC=CC[C@H]4C3=O)n2)cc1,inactive: -2.73%

row,SMILES,inhibition
1,CCN(CC(=O)NCc1cccs1)S(=O)(=O)c1ccc(F)c(F)c1F,inconclusive: 38.9%
2,CC(C)NC(=O)NC(=O)COC(=O)CCOc1ccccc1,inconclusive: 18%
3,COc1ccccc1NC(=O)Cn1c(C)cc(=O)c2cccc(OC)c21,inactive: -0.857%
4,CC(=O)c1ccc(OC(=O)CCc2nc3ccccc3s2)cc1,inconclusive: 24.8%
5,COc1ccc(-n2cc(C(=O)O)c(=O)cc2C)cc1,inconclusive: 14.9%
6,Cc1ccc(S(=O)(=O)Oc2ccc(C3C4=C(CCCC4=O)OC4=C3C(=O)CCC4)cc2)cc1,inconclusive: 12.3%
7,CCN(CC)S(=O)(=O)c1ccc2c(c1)c(=O)c(C(=O)NCCN(C)CCc1ccccc1)cn2C,inactive: 2.72%
8,C=CC[C@H](CC(=O)N(CCO)Cc1ccccc1)C(=O)N[C@@H](COC(=O)[C@@H](CC=C)CC(=O)OC(C)(C)C)Cc1c[nH]c2ccccc12,active: 39.9%
9,CCC(NC(=O)c1cc(COc2cc(C)c(Cl)c(C)c2)on1)c1ccncc1 (stereo not given),inconclusive: 24.2%
10,Cc1ccc(C(=O)C(C)OC(=O)Cn2[nH]c(=O)c3ccccc3c2=O)cc1C (stereo not given),inactive: -6.1%
11,Cn1c(=O)c2c(ncn2CC(=O)Nc2nc3ccc(F)cc3s2)n(C)c1=O,inactive: -8.63%
12,Cc1ccc2sc(N(CCCN(C)C)C(=O)c3ccc(S(=O)(=O)N4CCOCC4)cc3)nc2c1C,inconclusive: 21.5%
13,Cc1ccc(NC(=O)Cc2ccccc2F)cc1S(=O)(=O)N1CCCCCC1,inconclusive: 27.2%
14,COc1ccc(N2CCN(c3nc4ccccc4nc3NS(=O)(=O)c3ccccc3)CC2)cc1,inconclusive: 13.4%
15,O=C(CCc1ccc(S(=O)(=O)NC2CCCCC2)cc1)NCc1ccccn1,inconclusive: 15.8%
16,CC(C)(C)OC(=O)N1CCC(C(N)=O)CC1,inconclusive: 20%
17,COc1ccc(OC)c(C(c2nnnn2CC2CCCO2)N2CCN(C3CCCC3)CC2)c1 (stereo not given),inconclusive: 17.2%
18,Cc1onc(-c2ccccc2Cl)c1C(=O)Nc1ncn[nH]1,inactive: 3.66%
19,O=S(=O)(c1ccc(Cl)c(C(F)(F)F)c1)N1CCN(CC(O)COc2ccccc2F)CC1 (stereo not given),inconclusive: 21.1%
20,O=C1NN(c2cccc(Br)c2)C(=O)/C1=C\c1ccccc1,inactive: 2.06%
21,CCCCNc1c(-c2ccc(SC(C)CC)cc2)nc2cnccn12 (stereo not given),active: 31.5%
22,NS(=O)(=O)c1ccc(NC(=S)NNC(=O)c2cccs2)cc1,inconclusive: 23%

# Looked up above.
# inhibition, COc1ccccc1NC(=O)Cn1c(C)cc(=O)c2cccc(OC)c21 reads inactive: -0.857%
# inhibition, CCCCNc1c(-c2ccc(SC(C)CC)cc2)nc2cnccn12 (stereo not given) reads active: 31.5%
# inhibition, O=C(CCc1ccc(S(=O)(=O)NC2CCCCC2)cc1)NCc1ccccn1 reads inconclusive: 15.8%

# Next records

row,SMILES,inhibition
1,CC(C)n1c(=O)[nH]c2cc(C(=O)Nc3ccccc3)ccc21,inconclusive: 20%
2,COc1ccc(CCNCC(O)COc2c(C)cccc2C)cc1OC (stereo not given),inactive: 1.57%
3,O=C(COC(=O)CCc1ccccc1)NC1CCS(=O)(=O)C1 (stereo not given),inconclusive: 30.1%
4,CC(C)c1nc(=S)n(-c2ccccc2)[nH]1,inactive: -0.575%
5,COc1ccc(CCNC(=O)CC(c2ccccc2)c2cccc(C)c2O)cc1OC (stereo not given),inconclusive: 16.1%
6,CCN1C(=O)[C@H]2[C@@H](c3ccc(-c4ccc(F)cc4)c(OC)c3)N[C@@](Cc3ccccc3)(C(=O)OC)[C@H]2C1=O,inconclusive: 22%
7,COc1ccc(-c2csc(N(CCCN(C)C)C(=O)c3ccccc3C)n2)cc1,inconclusive: 22.9%
8,Cc1cc(-c2nnc(CCC(=O)N3CCN(Cc4cccnc4)CC3)o2)c(C)o1,inconclusive: 23.3%
9,Cc1ccc(NC(=S)NNC(=S)Nc2cccc(C(F)(F)F)c2)cc1,inconclusive: 21.9%
10,C=CCC[C@@H](Cc1ccc(F)cc1)C(=O)O[C@H](CNC(=O)[C@H](CC=C)CC(=O)N(CCO)Cc1ccccc1)c1ccccc1,active: 48.4%
11,CC1CCN(Cc2c(C(=O)N/N=C/c3cccc(C(F)(F)F)c3)nnn2-c2nonc2N)CC1,inactive: 4.64%
12,O=C(Cn1c2[n+](c3ccc(C(F)(F)F)cc31)CCCCC2)c1ccc2c(c1)OCCO2,inconclusive: 28.1%
13,CCN1C(=O)[C@H]2[C@@H](c3ccc(-c4ccc(OC)cc4)c(OC)c3)N3CCCC[C@@]3(C(=O)OC)[C@H]2C1=O,inconclusive: 22.1%
14,O=C(CSCc1ccc(Cl)cc1)Nc1cccc(C(=O)Nc2ccccc2C(=O)O)c1,inactive: 1.73%
15,O=C(NCN1CCN(c2ccccc2F)CC1)c1cccnc1,inconclusive: 17.5%
16,Cc1cccc(C(=O)OCC(=O)c2c(C)[nH]c3ccccc23)c1O,inactive: 12.7%
17,CC1(C(=O)NC(=S)N(CCC#N)Cc2cccnc2)CC1(Cl)Cl (stereo not given),inconclusive: 21.7%
18,Cc1ccc(C2C(C#N)=C(N)OC3=C2C(=O)CC(C)(C)C3)s1 (stereo not given),inactive: 3.42%
19,COC(=O)c1ccc(OC(=O)c2ccco2)cc1,active: 55.6%
20,CCCCC(CC)CN=C(N)NC(N)=NCCCCCCN=C(N)NC(N)=NCC(CC)CCCC (stereo not given),inconclusive: 31%
21,CC1(C)CN(c2ccccc2)N(Cc2ccc(F)cc2)C1=O,inconclusive: 17.4%
22,COc1cccc(NC(=O)NCCc2ccc(Cl)cc2)c1,inconclusive: 19%

row,SMILES,inhibition
1,Cc1cc(Cl)ccc1C1=CC(=O)C[C@H](c2ccc(F)cc2)C1,inactive: 4.88%
2,CCN(CC(=O)Nc1c(F)cccc1F)C(=O)CN1C(=O)C2CCCCC2C1=O (stereo not given),inconclusive: 2.12%
3,COCCOc1ccc(C(F)(F)F)cc1NC(=O)COC(=O)c1cc([N+](=O)[O-])ccc1N1CCOCC1,inconclusive: 23.1%
4,CC(C)[C@H](NC(=O)C1CC(=O)N(c2ccc3c(c2)OCO3)C1)C(=O)NC1CCCC1 (stereo not given in full),inconclusive: 21.3%
5,O=C(O)c1cccc(N=NN2CCOCC2)c1,inconclusive: 17.4%
6,CCOC(=O)COc1ccc(S(=O)(=O)N2CCN(c3ccc(F)cc3)CC2)cc1,inconclusive: 45%
7,COc1ccc(NC(=O)N(CCCN(C)C)Cc2cc3cc(OC)ccc3[nH]c2=O)cc1,inconclusive: 20.3%
8,CCC(C)C(NS(=O)(=O)c1ccc(C)cc1)C(=O)N1CCOCCOCCOCC1 (stereo not given),inactive: 4.88%
9,CCOc1ccc(CCNC(=O)C2CC=CCC2C(=O)OC(C)C)cc1OCC (stereo not given),inactive: 0.864%
10,CCSC1=C(C#N)C(c2ccc(Cl)cc2)C2=C(CCCC2=O)N1 (stereo not given),inactive: -1.14%
11,O=C(Nc1ccnn1C1CCN(CCCc2ccccc2)CC1)c1ccccc1Cl,inactive: 1.24%
12,Cc1noc(C)c1CSc1nc2ccccc2c(=O)n1-c1ccc(F)cc1F,inconclusive: 16.5%
13,CC(=O)Oc1ccc(-c2nc3ccccc3c(=O)o2)cc1,inconclusive: 15.1%
14,CC(C)C(NC(=O)c1ccccc1)C(=O)N/N=C\c1ccco1 (stereo not given),inactive: 4.16%
15,Cc1cc(-c2csc(N)n2)c(C)n1Cc1ccccc1,inconclusive: 28.2%
16,COc1cc(CNc2cc(C)ccc2C)cc(OC)c1OC,inactive: -3.57%
17,CCOC(=O)c1cc(C)sc1NC(=O)CN1CCN(C(=O)C2CCCO2)CC1 (stereo not given),inactive: 2.77%
18,S=c1[nH]nc(COc2ccc(Cl)cc2)n1-c1ccc(Cl)cc1,inactive: -1.92%
19,CC(C)c1ccc(NC(=O)C(c2ccc3c(c2)OCO3)N2CCCCC2)cc1 (stereo not given),inconclusive: 23.9%
